{
  "source": "paper PMC7663122",
  "about": "“Protein-Assisted Room-Temperature Assembly of Rigid, Immobile Holliday Junctions and Hierarchical DNA Nanostructures”",
  "biological_target": "T1, Redβ (single-strand annealing protein) (UniProt P03698)",
  "T1 sequence (looked up, limits assumed)": "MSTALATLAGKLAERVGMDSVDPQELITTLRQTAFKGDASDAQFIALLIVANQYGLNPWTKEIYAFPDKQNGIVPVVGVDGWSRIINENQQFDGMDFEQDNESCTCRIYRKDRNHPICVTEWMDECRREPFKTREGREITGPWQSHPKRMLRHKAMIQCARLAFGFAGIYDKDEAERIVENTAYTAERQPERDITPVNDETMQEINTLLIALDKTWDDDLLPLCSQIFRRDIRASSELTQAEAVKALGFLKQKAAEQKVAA",
  "assay": "SEC, agarose gel and AFM",
  "settings": "large networks that do not enter the gel; B1 buffer: 50 mM Tris-HCl pH 8.0, 150 mM NaCl, 1 mM MgCl2, 25 °C (sticky-end assemblies); 44mer coating and annealing at 37 °C; SEC in 100 mM Tris-HCl pH 8.0; recombinant protein; protein details: Strep-tag II; folded or branched DNA",
  "note": "Construct, isoform or probe ends are uncertain for at least one entry. At least one verdict was read from the data and is not stated in words by the source. Tags and fusion partners may be left off the protein sequences shown.",
  "data": [
    {"sequence": "CCAATACGTGCTCGCCGTCCAGCGACTCTTAATTGCGTTGGTGTTTTTGAGTGAGTCTCTAACCCG / CGCCAGTCGTCTATGGCGCTGACGGGTTAGAGACTCACTCAAAAAGGCGATGGTGAGCATGTCTGG / CTGGACGGCGAGCACGTATTGGCCAGACATGCTCACCATCGCCTATCATAAGCGCACCCGCTGCCC / TCAGCGCCATAGACGACTGGCGGGGCAGCGGGTGCGCTTATGATACACCAACGCAATTAAGAGTCG", "values": [
      {"measurement": "binding result", "value": "binds"}
    ]}
  ]
}
